The experiment can be described thus: qHTS Assay for Lipid Storage Modulators in Drosophila S3 Cells.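 For cell number change: cells counted by Cell Tracker Red CMTPX staining in the red channel.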 Conditions: BODIPY lipid droplet fluorescence, 18-24 h; for cell number change: measured here: cell count max response, cells fed with added oleic acid. The method in brief: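 Drosophila S3 cells loaded with oleic acid (400 uM, as added) and compounds at several concentrations; lipid droplets imaged by 488-nm laser-scanning cytometry, 500–530 nm intensity and object ratio to cell channel. Percent activity normalized to 20 uM Triacsin C.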

The mark [1] stands for this setting: measured here: lipid fluorescence (Fed channel) AC50, cells fed with added oleic acid.
Where [2] appears, read: measured here: cell number channel AC50, cells fed with added oleic acid.

The list shows a part of the results. These are further read-outs of the screen, such as a control signal, another cell line or another target. No call is given for them. The list favours compounds with an active or inconclusive main result. Potencies come from curve fits of mixed quality, noted in brackets.

A word on the AC50: it is the concentration giving half of the maximal activity seen. Low values mean greater potency, high ones weaker potency. On to `CC(=O)Nc1ccc(S(=O)(=O)N(CC(=O)Nc2cc(C)on2)Cc2ccc(F)cc2)cc1`, for which the cell number change worked out at 4.09%. Moreover, the AC50 under setting [1] was 4.11 µM [rising, single point].
Regarding `CC(C)(C)c1ccc(C(=O)NCCn2c(N)c(C#N)c3nc4ccccc4nc32)cc1`, the cell number change is -40.7%. Further, the AC50 under setting [2] was 29.1 µM [falling, single point]. Moreover, the AC50 under setting [1] is 29.1 µM [falling, single point].
For `CNS(=O)(=O)c1cccc(C(=O)OCC(=O)NCCCc2ccccc2)c1`, the cell number change was -1.21%. The AC50 under setting [2] was 0.164 µM [falling, full curve, poor fit]. Besides, the AC50 under setting [1] is 6.51 µM [falling, single point].
On to `O=C(Cn1c(C(F)(F)F)nc2ccccc21)Oc1cccc(C(F)(F)F)c1`, for which the cell number change was -35.1%. Moreover, the AC50 under setting [2] is 0.291 µM [falling, partial curve, poor fit]. Further, the AC50 under setting [1] is 0.13 µM [falling, full curve, poor fit].
With `O=c1c2ccccc2c(/C=N/NS(=O)(=O)c2ccccc2)c(O)n1-c1ccccn1`, the cell number change was -2.71%. For the same molecule, the AC50 under setting [2] is 0.517 µM [rising, full curve].
`COc1ccc2c(Cl)c(-c3nnc4n3CCCCC4)sc2c1`: the cell number change came out at 17.5%. The AC50 under setting [2] is 0.58 µM [rising, full curve, poor fit]. Under setting [1], the AC50 was 2.31 µM [falling, partial curve].
Turning to `CC1Cc2ccccc2N1C(=O)COC(=O)CCc1nc2ccccc2c(=O)[nH]1` (centres undefined), the cell number change is -3.12%.
With `CN(C)S(=O)(=O)c1cc(NC(=O)COC(=O)C2CSC3(C)CCC(=O)N23)ccc1Cl` (centres undefined), the cell number change worked out at 11%. In addition, under setting [1], the AC50 was 0.00411 µM [rising, full curve, poor fit].
Regarding `CCOC(=O)C1=C(N)OC2=C(C(=O)CCC2)C1c1ccccc1OCC` (centres undefined), the cell number change turned out to be 84.4%. Further, the half-maximal activity concentration (AC50) under setting [2] is 18.4 µM [rising, partial curve].
On to `O=C(CCN1CCC(c2ccccc2)C1)c1cccs1` (centres undefined), for which the cell number change was -12%. The AC50 under setting [1] is 2.59 µM [rising, single point].
As to `COc1ccc2ccc(C(C)(C(C)=O)C(=O)OC(C)C)cc2c1` (centres undefined), the cell number change stood at 6.92%. Also, the concentration at half-maximal activity (AC50) under setting [2] was 0.291 µM [falling, partial curve, poor fit]. In addition, the AC50 under setting [1] was 0.00651 µM [rising, full curve, poor fit].
Regarding `Cc1ccc(S(=O)(=O)N(C)CC(=O)N2CCN(Cc3ccccc3)CC2)cc1`, the cell number change is -29.2%.
`Cc1ccc(Sc2cc(C(F)(F)F)nc(N(C)C)n2)cc1`: the cell number change was -3.24%. For the same molecule, the AC50 under setting [1] was 0.731 µM [falling, full curve, poor fit].
Regarding `Cc1cccc(NC(=O)Nc2ccc([N+](=O)[O-])cc2)n1`, the cell number change came to 14.1%.
For `CC1CCCCN1C(=O)COC(=O)c1cc([N+](=O)[O-])ccc1N1CCOCC1` (centres undefined), the AC50 under setting [1] was 16.4 µM [falling, single point].
With `Cc1cc(=O)oc2cc(OCC(=O)Nc3nnc(C4CC4)s3)ccc12`, the cell number change came to 16.6%. For the same molecule, the AC50 under setting [1] is 8.2 µM [rising, partial curve, poor fit].
As for `CC(C)(C)C1=NN=C2c3ccccc3C(=O)C21` (centres undefined), the cell number change was -44.4%. Further, under setting [2], the AC50 is 2.91 µM [falling, full curve, poor fit]. The AC50 under setting [1] was 4.11 µM [falling, single point].
Take `CC(C)[C@H]1COCCS(=O)(=O)N1Cc1cccc(Cl)c1`: the cell number change was 11.3%.
`O=C(CCC(=O)N(CC(=O)NC1CCCC1)Cc1cccs1)Nc1nccs1`: the cell number change stood at 21.4%. Further, the AC50 under setting [1] is 0.651 µM [rising, full curve].
For the molecule `Cc1nn(-c2ccc(F)cc2)c(Cl)c1/C=C(\CCC(=O)O)c1nc2ccccc2s1`, the cell number change is -6.39%.
Turning to `CSc1cnc2c(N)nc(N(C)C)nc2n1`, the AC50 was 6.51 µM [rising, partial curve, poor fit] under setting [2] and 6.51 µM [rising, single point] under setting [1].
Take `CCc1ccc(NC(=O)CSc2nc(=O)n(CCCN(C)C)c3c2CCC3)cc1`: the cell number change is -2.56%. In addition, the AC50 under setting [1] was 0.58 µM [falling, single point].
`O=C(Cc1cccs1)Nc1nc(-c2ccc(F)c(F)c2)cs1`: the cell number change came to 5.13%. Besides, the AC50 under setting [1] was 29.1 µM [rising, single point].
Take `FC(F)(F)c1ccc(-c2nnc(-c3cccnc3)o2)cc1`: the cell number change was 2.65%. Also, under setting [1], the AC50 was 29.1 µM [falling, single point].
In the case of `CCCCc1oc2ccccc2c1C(=O)c1cc(I)c(OCCN(CC)CC)c(I)c1`, the cell number change is -75.5%. The AC50 under setting [2] is 25.9 µM [falling, single point]. Besides, under setting [1], the AC50 is 32.6 µM [falling, partial curve].
As for `Cc1nn2c(C)c(C(=O)Nc3ccccc3)cnc2c1C#N`, the AC50 under setting [2] is 0.291 µM [rising, full curve].
`COCCCN=Cc1c(-c2ccccc2)[nH]n(-c2nc3ccccc3s2)c1=O`: the cell number change turned out to be 6.66%. Also, the AC50 under setting [1] is 6.51 µM [falling, single point].
Consider `CC(C)(C)C(=O)Cn1ncc(Cl)c(Cl)c1=O`, for which the cell number change amounted to 34.8%. Under setting [2], the AC50 was 14.6 µM [rising, single point]. Under setting [1], the AC50 was 23.1 µM [rising, single point].
As for `COc1cc(CCNC(=O)c2cnn3ccccc23)cc(OC)c1OC`, the cell number change came out at 11.2%. Also, the half-maximal activity concentration (AC50) under setting [1] is 25.9 µM [falling, single point].
With `O=C(OCCOCCN=C1NS(=O)(=O)c2ccccc21)c1ccc(F)cc1`, the AC50 under setting [1] is 0.708 µM [falling, full curve].
Take `CCOC(=O)c1c(-c2ccc(C)c(C)c2)csc1NC(=O)C1CC=CCC1C(=O)O` (centres undefined): the cell number change was -82.8%. In addition, the AC50 under setting [2] is 29.1 µM [falling, single point].
Turning to `CCN(CC)S(=O)(=O)c1ccc(OC)c(NC(=S)Nc2cccc(C)c2C)c1`, the cell number change was -5.55%. Further, the AC50 under setting [1] is 3.26 µM [rising, full curve].
In the case of `Cc1ccc(OCCC(=O)OCC(=O)Nc2ccc(F)cc2)cc1`, the cell number change is -75%. For the same molecule, under setting [2], the AC50 is 29.1 µM [falling, single point].
In the case of `O=C(NCc1ccccn1)c1cc(S(=O)(=O)N2CCCCCC2)ccc1Cl`, the cell number change is 0.276%.
For `COc1ccc(C(=O)OCC(=O)C(C)(C)C)cc1S(=O)(=O)N(C)CCc1cccnc1`, the cell number change was -25.4%. Further, under setting [2], the AC50 was 6.51 µM [rising, single point]. In addition, the AC50 under setting [1] was 11.6 µM [falling, single point].
On to `CCc1ccccc1NC(=O)C1(S(=O)(=O)c2ccc(C)cc2)CC1`, for which the cell number change was -2.86%. Moreover, under setting [1], the AC50 is 29.1 µM [rising, single point].
For `O=C(CNC(=O)c1cccs1)OCC(=O)c1ccc(Cl)cc1`, the cell number change is -1.38%. Moreover, the AC50 under setting [1] is 4.61 µM [falling, single point].
For `COc1cc(-c2nc3n(n2)C(c2ccncc2)C(C(N)=O)=C(C)N3)cc(OC)c1OC` (centres undefined), the cell number change came out at 17.2%.
Regarding `O=C1OC(N2CCN(C(=O)C3CCCO3)CC2)c2ccccc21` (centres undefined), the cell number change is -25.4%. Under setting [2], the AC50 is 0.731 µM [falling, full curve, poor fit]. Moreover, the AC50 under setting [1] is 0.00461 µM [falling, full curve].
Take `Cc1ccc(C)c(NC(=O)CSc2cccc3cccnc23)c1`: the cell number change was -3.97%.
For `c1ccc2c(c1)nc(N1CCOCC1)c1ccccc12`, the cell number change is -63.2%. Besides, the AC50 under setting [2] was 18.4 µM [falling, single point]. Moreover, the AC50 under setting [1] is 29.1 µM [falling, partial curve, poor fit].
With `COc1cc2cc(C(=O)N/N=C/c3ccc(F)cc3)[nH]c2cc1OC`, the cell number change was found to be 39.6%.
As to `O=C(c1ccccc1F)N1CCN(c2ccccn2)CC1`, the cell number change was 3.7%. Moreover, under setting [1], the AC50 is 29.1 µM [rising, single point].
For `COc1ccccc1CCc1nnc(CCC(=O)NC(C)Cc2cccc(C)n2)o1` (centres undefined), the cell number change came out at 23.2%. Under setting [1], the AC50 is 1.84 µM [rising, full curve, poor fit].
For `COc1ccccc1N(O)C1CC(=O)N(c2ccc(Br)cc2)C1=O` (centres undefined), the cell number change was -37.1%. Also, under setting [2], the AC50 was 2.31 µM [falling, partial curve, poor fit]. For the same molecule, the AC50 under setting [1] is 29.1 µM [falling, single point].
As to `Cc1ccc(CNC(=O)CCS(=O)(=O)c2ccc3c(c2)NC(=O)C(C)S3)cc1` (centres undefined), the cell number change is 14.1%. Besides, the AC50 under setting [1] was 1.84 µM [rising, single point].
For `CCOc1ccc(NC(=O)NCCN2CCN(c3ccccc3F)CC2)cc1`, the cell number change was -4.58%. Also, under setting [1], the AC50 was 0.13 µM [falling, full curve, poor fit].
On to `O=C(CSc1ncnc2ccccc12)Nc1ccc(N2CCOCC2)cc1`, for which the cell number change was 3.72%. Besides, the AC50 under setting [1] is 2.06 µM [rising, single point].
For `COC(=O)C1=CN(C2CC2)C=C(C(=O)OC)C1c1ccccc1OC`, the cell number change came to 0.0678%. For the same molecule, the AC50 under setting [1] is 3.26 µM [rising, full curve].
Take `Clc1ccccc1-c1nnc2sc(-c3ccncc3)nn12`: the cell number change was -15.5%. In addition, the AC50 under setting [1] was 0.184 µM [rising, full curve].
As for `O=C(COC(=O)c1ccc(OC(F)F)cc1)NCCCN1CCCC1=O`, the cell number change was 40.2%. The AC50 under setting [2] is 20.6 µM [rising, single point].
For `Cc1nnc(SC(C)C(=O)N(C)C2CCCCC2)n1N` (centres undefined), the cell number change was -1.12%. The AC50 under setting [1] is 1.64 µM [rising, partial curve].
For `COc1ccc2oc(=O)c(C(=O)Nc3ccccc3C)cc2c1`, the cell number change was -3.65%. The AC50 under setting [1] is 29.1 µM [falling, single point].
For `CNC(=O)CCn1nc(-c2ccc(Cl)cc2)c2ccccc2c1=O`, the cell number change turned out to be 4.3%. For the same molecule, under setting [1], the AC50 is 29.1 µM [rising, single point].
`CC1(C)CC(=O)C=C(Nc2ccc(C(=O)O)c(O)c2)C1`: the cell number change turned out to be 21.6%. In addition, the half-maximal activity concentration (AC50) under setting [1] was 29.1 µM [rising, single point].
For the molecule `CN(C)c1ccc(S(=O)(=O)NCC(=O)OCC(=O)c2ccc[nH]2)cc1[N+](=O)[O-]`, the cell number change is -7.64%. Further, the AC50 under setting [1] was 7.31 µM [falling, single point].
Regarding `CCN(CC)S(=O)(=O)c1cc(NC(=O)CO/N=C(\N)c2ccccc2Cl)ccc1C`, the cell number change stood at 35.7%. Besides, under setting [2], the AC50 is 2.06 µM [rising, full curve]. The AC50 under setting [1] is 20.6 µM [falling, partial curve, poor fit].
Take `CCCCCCCCCCS(=O)(=O)N/N=C/c1ccc([N+](=O)[O-])cc1`: the cell number change was -72.7%. For the same molecule, the concentration at half-maximal activity (AC50) under setting [2] was 23.1 µM [falling, partial curve].
With `CCc1c(C)nc(SCCOc2ccc(OC)cc2)[nH]c1=O`, the cell number change is -0.566%. The AC50 under setting [1] is 29.1 µM [rising, single point].

The record behind these values is PubChem BioAssay AID2685 (National Center for Advancing Translational Sciences (NCATS), 2010).
